Patent publication US7943356B2, “Alcohol dehydrogenase for the stereoselective production of hydroxy compounds” (Codexis, Inc., priority 2004, dated 2011)

Experiments:
[1] = Reduction of 2,4-pentanedione, substrate and product contents after 48 hrs; assay type: biochemical; conditions: 30° C., 50 mM Tris/HCl pH 7.0, NADP
[2] = Conversion of 2-pentanone with substrate-coupled cofactor regeneration (isopropanol); assay type: biochemical; conditions: 200 mM 2-pentanone, 3 U/ml ADH T, 0.05 mM NADP
From the text: In fact, it can be shown that the enantioselectivity in the reduction of critical ketones such as 2-pentanone or 2-butanone by substrate-coupled cofactor regeneration with isopropanol is also far better than with the use of enzyme-coupled cofactor regeneration.
Also, the achievable enantiomeric purity of the product depends on the quantity of isopropanol used (Table 9).

[3] = enzyme-coupled, glucose dehydrogenase, 10 U/ml enzyme
[4] = substrate-coupled, isopropanol (10%), 5 U/ml enzyme

B1: ADH T: thermally stable, (S)-selective NADP-dependent alcohol dehydrogenase from Thermoanaerobacter species (SEQ ID NO: 2), recombinant (protein)
chain: MKGFAMLSIGKVGWIEVEKPNPGPFDAIVRPLAVAPCSSDIHTVFEGGLGELHNAVLGHEAVGEVVEVGSEVKDFKPGDKVVIPAITPDWRTLDVQRGYHQQSGGMLAGYKFTAQKPGVFAEYIYVNDADMNLAHLPDGISLEAAVMITDMMTTGFHGAELAEIELGATVAVLGIGPVGLMAVAGAKLRGAGRIIAVGSRPVCVDAAKYYGATDIVNYKNGPIDSQIMDLTKGKGVDAAIIAGGNVDIMATAVKIVKPGGTIANVNYFGEGDVLPVPRLEWGCGMAHKAIKGGLCPGGRLRMERLIDLVFYKRVDPSKLVTHVFQGFDNIEKALMLMKDKPKDLIKPVVILA
modifications: Thermoanaerobacter species
(S)-4-hydroxy-2-pentanone content [1, 3]: 14.6% | (S,S)-2,4-pentanediol content [1, 3]: 85.4% | (S)-4-hydroxy-2-pentanone content [1, 4]: 82.6% | (S,S)-2,4-pentanediol content [1, 4]: 17.4% | ee ([2]; 100 mM Tris-Cl pH 7.0, 20% isopropanol, 24 hours): 98.9% | ee ([2]; 100 mM Tris-Cl pH 7.0, 20% isopropanol, 48 hours): 98.3% | ee ([2]; 100 mM Tris-Cl pH 7.0, 50% isopropanol, 24 hours): 99.9% | ee ([2]; 100 mM Tris-Cl pH 7.0, 50% isopropanol, 48 hours): 99.9%
